This passage reports cell number change and AC50 results from PubChem BioAssay AID2685 (National Center for Advancing Translational Sciences (NCATS), 2010).

This assay in a line: qHTS Assay for Lipid Storage Modulators in Drosophila S3 Cells.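 For cell number change: cells counted by Cell Tracker Red CMTPX staining in the red channel.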 Conditions: BODIPY lipid droplet fluorescence, 18-24 h; for cell number change: measured here: cell count max response, cells fed with added oleic acid. The method in brief: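 Laser-scanning cytometry quantifies lipid droplet accumulation (500–530 nm total intensity; droplet/cell object ratio) in oleic acid-fed (400 uM added) Drosophila S3 cells treated with a concentration series. 20 uM Triacsin C defined 100% inhibition.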
On the technique in general: qHTS replaces the single test concentration by a dilution series.

Where [1] appears, read: measured here: cell number channel AC50, cells fed with added oleic acid.
The mark [2] stands for this setting: measured here: lipid fluorescence (Fed channel) AC50, cells fed with added oleic acid.

The list shows a part of the results. The main result of the screen is listed elsewhere. These columns were measured beside it and carry no call. Compounds called inactive in the main read-out are mostly missing here. Potencies come from curve fits of mixed quality, noted in brackets.

For the compound `N#C/C(=C\c1ccccc1Cl)C(=O)NC(=O)Oc1ccccc1`, the cell number change came to 4.89%. In addition, the AC50 under setting [1] was 0.651 µM [falling, single point].
In the case of `O=C(O)CCCNS(=O)(=O)c1ccccc1`, the cell number change was -1.29%. Besides, under setting [2], the AC50 is 0.164 µM [falling, full curve, poor fit].
In the case of `O=C(O)[C@H](Cc1ccccc1)N1C(=O)c2ccncc2C1=O`, the cell number change came to 15.9%. Besides, the AC50 under setting [2] is 1.16 µM [rising, full curve, poor fit].
On to `COc1ccccc1N(CC(O)CN(c1ccccc1)S(C)(=O)=O)S(=O)(=O)c1ccccc1` (centres undefined), for which the cell number change was determined as 2.5%. The AC50 under setting [2] is 0.411 µM [falling, partial curve, poor fit].
As to `CC(=O)c1cccc(OCc2cc(C(=O)NC3CCN(Cc4ccccc4)CC3)no2)c1`, the AC50 under setting [2] is 6.51 µM [rising, single point].
On to `CC(=O)c1cc2c(cc1NC(=O)CSc1nc3ccccc3o1)OCO2`, for which the cell number change is -18.4%. Besides, the AC50 under setting [2] is 2.31 µM [rising, partial curve, poor fit].
As to `COc1ccc(NC(=S)Nc2cccc(Cl)c2)cc1OC`, the AC50 under setting [2] is 0.517 µM [rising, single point].
As to `Cc1cc(OCC(=O)NNC(=O)CCc2ccccc2)ccc1Br`, the cell number change is 15.8%.
Regarding `CN1CCC(NC(=O)c2cccs2)CC1`, the cell number change amounted to 10.8%. In addition, under setting [1], the AC50 was 0.082 µM [falling, full curve, poor fit]. In addition, under setting [2], the concentration at half-maximal activity (AC50) is 23.1 µM [falling, partial curve, poor fit].
In the case of `CC1CN(C(=O)c2cc(-c3ccc(Cl)s3)nc3ccccc23)CC(C)O1` (centres undefined), the AC50 under setting [2] was 0.58 µM [falling, single point].
Consider `Cc1ccc(NC(=S)N2CCN(C)CC2)c(C)c1`, for which the AC50 under setting [1] was 0.651 µM [rising, partial curve, poor fit] and the AC50 under setting [2] is 1.84 µM [rising, partial curve].
In the case of `CC(Oc1cc(Cl)ccc1Cl)C(=O)N/N=C\c1ccnn1C` (centres undefined), the cell number change worked out at 32.3%. Also, the AC50 under setting [1] is 2.59 µM [rising, partial curve].
As for `N#CCN1C(=O)C2CCCN2c2ccc(S(=O)(=O)N3CCOCC3)cc21` (centres undefined), the cell number change is -5.25%.
Turning to `COc1ccc(Br)cc1CNC(=O)Cc1c(C(=O)O)[nH]c2ccc(Cl)cc12`, the cell number change was -32.9%. Further, the AC50 under setting [1] is 29.1 µM [falling, single point].
Consider `CCc1ccc(C(=O)COC(=O)c2cccnc2Cl)cc1`, for which the cell number change turned out to be 54.2%. Also, the half-maximal activity concentration (AC50) under setting [1] is 29.1 µM [rising, single point].
Turning to `COc1cc(NC(=O)CSc2ccc3c(c2)OCCO3)cc(OC)c1OC`, the cell number change was -26.5%.
On the same count and under the same terms, the figure for `Cc1nn(CCCC(=O)NCCc2ccc(Cl)cc2)c(=O)c2nn(-c3ccccc3)c(C)c12` is -7.79%.
In the case of `COc1ccc(NC2CC(=O)NC2=O)cc1` (centres undefined), the cell number change was 4.02%. Further, under setting [1], the concentration at half-maximal activity (AC50) was 0.651 µM [rising, full curve, poor fit].
Turning to `COc1ccc(S(=O)(=O)N2CCC(C(N)=O)(N3CCCCC3)CC2)cc1OC`, the cell number change is 7.14%. Moreover, the half-maximal activity concentration (AC50) under setting [2] was 29.1 µM [rising, partial curve, poor fit].
On to `O=C(NCCCN1CCCC1)c1ccc(CS(=O)(=O)c2ccc(Cl)cc2)o1`, for which the cell number change was found to be 3.99%. Besides, the half-maximal activity concentration (AC50) under setting [2] was 0.103 µM [rising, partial curve, poor fit].
On to `O=C(NCCc1ccc(Cl)cc1)c1ccc(NC2=NC3CS(=O)(=O)CC3S2)cc1` (centres undefined), for which the cell number change worked out at 32.9%. Under setting [1], the AC50 was 23.1 µM [rising, single point].
Turning to `O=C(N/N=C\c1c(O)ccc2ccccc12)c1ccc(O)cc1`, the cell number change is -4.66%. Moreover, the half-maximal activity concentration (AC50) under setting [2] was 14.6 µM [falling, single point].
For the compound `O=C1CCC(C(=O)N2CCCC2)CN1Cc1cccc(C(F)(F)F)c1` (centres undefined), the cell number change amounted to 11.4%. Besides, the half-maximal activity concentration (AC50) under setting [2] was 29.1 µM [falling, single point].
With `Cc1ccc(S(=O)(=O)NCCC(=O)OCC(=O)Nc2cccc(Cl)c2)cc1`, the cell number change is -0.842%. In addition, under setting [2], the half-maximal activity concentration (AC50) is 25.9 µM [rising, partial curve].
As to `CC1CN(C(=O)c2ccc(CNS(=O)(=O)c3cccc(Cl)c3)cc2)CC(C)O1` (centres undefined), the cell number change was -23.5%. Also, under setting [2], the AC50 is 18.4 µM [falling, single point].
With `COCCN1CC(C(=O)NCc2ncccc2C)CCC1=O` (centres undefined), the cell number change came out at 2.93%. Also, the AC50 under setting [2] is 0.00461 µM [falling, full curve, poor fit].
Regarding `CCN(CC)c1ccc(S(=O)(=O)N2CCOCC2)cc1NC(=O)Cn1nc(C)c([N+](=O)[O-])c1C`, the cell number change was 31.2%. In addition, under setting [1], the half-maximal activity concentration (AC50) is 29.1 µM [rising, single point]. Besides, under setting [2], the AC50 was 23.1 µM [rising, partial curve].
On to `COc1ccc(CNC(=O)c2ccc(CS(=O)Cc3ccc(Cl)cc3)o2)cc1` (centres undefined), for which the cell number change was -11.8%.
Turning to `CCOC(=O)N1CCN(C(=O)c2ccc3nc(SCc4ccc(F)cc4)n(C)c3c2)CC1`, the cell number change was determined as 0.575%.
On the same count and under the same terms, in the case of `O=C(NCCc1c[nH]c2ccccc12)c1ccco1` it was -3.88%.
With `Cc1ccccc1NC(=S)N(Cc1ccccc1)Cc1cccs1`, the cell number change is -12.3%. The concentration at half-maximal activity (AC50) under setting [1] is 6.51 µM [rising, single point].
Consider `Cc1ccc2cc(CN(CCc3ccccc3)C(=S)NCCCN(C)C)c(=O)[nH]c2c1`, for which the cell number change was -10.9%. In addition, the AC50 under setting [2] was 32.6 µM [falling, single point].
For the compound `Cc1ccccc1Nc1nc(N)nc(COC(=O)c2ccc([N+](=O)[O-])o2)n1`, the cell number change was -4.06%. Moreover, under setting [2], the AC50 was 1.84 µM [rising, partial curve, poor fit].
As to `Cc1cc(C)nc(-n2cc(C(=O)c3cc(F)ccc3O)cn2)n1`, the cell number change was -33.4%. Further, the concentration at half-maximal activity (AC50) under setting [2] is 11.6 µM [rising, partial curve, poor fit].
Take `Cn1c(N)c(C(=O)COC(=O)/C=C/c2cccc(F)c2)c(=O)n(C)c1=O`: the cell number change is 6.05%. The concentration at half-maximal activity (AC50) under setting [2] was 3.26 µM [falling, partial curve].
Consider `CN(C)C(CNc1ccc(C(F)(F)F)cc1[N+](=O)[O-])c1ccccc1` (centres undefined), for which the cell number change was determined as 23.1%. Further, under setting [2], the AC50 was 18.4 µM [rising, single point].
As for `CCc1nc(-c2ccc(OC)c(OC)c2)cc2cc(OC)c(OC)cc12`, the cell number change is 1.47%. The AC50 under setting [2] was 0.58 µM [rising, single point].
Turning to `Cn1c(=O)c2c(nc(NC(Cc3ccccc3)C(=O)O)n2Cc2ccccc2)n(C)c1=O` (centres undefined), the cell number change stood at 7.63%.
Turning to `CC1=C(C(=O)Nc2cccc(C(=O)N3CCN(c4cccc(C(F)(F)F)c4)CC3)c2)SCCO1`, under setting [1], the AC50 is 6.51 µM [falling, single point].
Turning to `COC(=O)c1c(NC(=O)c2ccco2)sc2c1CCN(C(C)=O)C2`, the concentration at half-maximal activity (AC50) under setting [2] is 2.59 µM [falling, partial curve].
Consider `O=C(Cc1ccc(F)cc1)Nc1cccc(-c2cn3c(n2)SCC3)c1`, for which the cell number change is 6.15%. The AC50 under setting [1] is 2.91 µM [falling, single point].
Take `CCCCN(C)C(=O)c1nc2ccccn2c1CNC1CCC1`: the cell number change amounted to 42.3%. Further, the concentration at half-maximal activity (AC50) under setting [1] is 5.17 µM [rising, full curve].
Take `CCN(c1ccccc1)S(=O)(=O)c1ccc(Oc2ccc([N+](=O)[O-])cc2)nc1`: the AC50 is, setting by setting: under setting [1], 2.31 µM [rising, partial curve, poor fit]; under setting [2], 2.31 µM [rising, partial curve, poor fit].
For the compound `O=C(COC(=O)c1cc(S(=O)(=O)NCc2ccccc2)ccc1O)NCc1ccccc1`, the cell number change is -33.7%. For the same compound, the half-maximal activity concentration (AC50) under setting [1] was 29.1 µM [falling, single point]. In addition, the half-maximal activity concentration (AC50) under setting [2] is 29.1 µM [falling, single point].
On to `O=C(Nc1nccs1)C1CC(=O)N(CCc2ccc(F)cc2)C1` (centres undefined), for which the cell number change came out at 18.8%.
Regarding `CCN1c2ccccc2S(=O)(=O)c2ccccc21`, under setting [2], the AC50 was 29.1 µM [falling, single point].
In the case of `Cc1cccc(-c2nnc(SCC(=O)Nc3cc(C)on3)n2C)c1`, the cell number change is 51.3%.
With `C=CCn1c(SCn2nnc3ccccc3c2=O)nnc1-c1ccc(Br)cc1`, the cell number change came out at 3.51%. Also, the AC50 under setting [2] was 0.517 µM [rising, full curve].
On to `COC(=O)c1c(NC(=O)c2c(Cl)cnn2C)sc(C)c1C`, for which the cell number change was -12.8%. Under setting [1], the AC50 was 0.731 µM [falling, single point]. Besides, the AC50 under setting [2] was 0.651 µM [falling, single point].
In the case of `COc1cc([N+](=O)[O-])ccc1NC(=S)NNC(=O)c1ccc2c(c1)OCO2`, the cell number change turned out to be 19.2%. The AC50 under setting [2] was 2.91 µM [rising, single point].
`O=c1c(O)c(-c2ccc3c(c2)OCO3)oc2ccccc12`: the cell number change is -3.61%. Further, the half-maximal activity concentration (AC50) under setting [2] is 5.17 µM [falling, single point].
As for `CCCCn1c(=N)n(CC(=O)C(C)(C)C)c2ccccc21`, the cell number change is -22.1%. The AC50 under setting [2] was 0.00517 µM [rising, full curve, poor fit].
For the compound `CCOC(=O)C1CC(c2ccccc2)=NNC1=O` (centres undefined), the cell number change is 8.82%.
With `COc1ccc(C(=O)COC(=O)c2ccc(Cl)nc2)cc1OC`, the cell number change is -28.1%.
`CNc1nc2c(c(=O)[nH]c(=O)n2C)n1CCOC`: the cell number change was 4.02%. For the same compound, the AC50 under setting [2] was 3.66 µM [falling, single point].
In the case of `CCOc1ccc(C(C)=O)cc1COC(=O)CNC(=O)c1cccs1`, the cell number change is 23.4%. Moreover, under setting [2], the concentration at half-maximal activity (AC50) was 14.6 µM [rising, single point].
Consider `CCOc1ccc(NC(=O)N(CCCN2CCOCC2)Cc2cccnc2)cc1`, for which the cell number change was 5.83%. Also, the concentration at half-maximal activity (AC50) under setting [2] was 0.00411 µM [rising, full curve, poor fit].
For the compound `COc1ccc(C(CNC(=O)c2ccc(S(=O)(=O)N(C)C)cc2)N2CCCCC2)cc1` (centres undefined), the cell number change is -48.1%. The AC50 under setting [1] was 0.103 µM [falling, full curve, poor fit]. In addition, the concentration at half-maximal activity (AC50) under setting [2] is 18.4 µM [falling, partial curve].
For the compound `O=c1c2ccccc2nc(SCc2cc([N+](=O)[O-])cc3c2OCOC3)n1-c1ccccc1`, the AC50 under setting [2] was 0.164 µM [falling, full curve, poor fit].
For `CCN1CCN(c2nc(Nc3ccc(NC(C)=O)cc3)nc(Nc3ccc(NC(C)=O)cc3)n2)CC1`, the cell number change was 1.12%. Further, under setting [2], the AC50 is 0.0058 µM [falling, full curve, poor fit].
Turning to `COc1cccc(N2CC(C(=O)Nc3nnc(SCC(=O)Nc4ccc(NC(C)=O)cc4)s3)CC2=O)c1` (centres undefined), the cell number change is -9.35%. The AC50 under setting [2] is 29.1 µM [rising, single point].
`CCn1c(=O)cc(OCC(=O)Nc2ccc3c(c2)OCCO3)c2ccccc21`: the concentration at half-maximal activity (AC50) under setting [1] is 0.259 µM [rising, partial curve, poor fit].

In general, AC50 refers to the concentration giving half of the maximal activity seen. A higher AC50 goes with activity only at high concentration.
